# PubChem BioAssay AID1347076 (National Center for Advancing Translational Sciences (NCATS), 2019)
# Several values for one entry are separate records, joined by “and”; a condition that tells them apart may be missing. Equal entries are not always repeated. In all, about 400,000 compounds went through this assay and about 13,000 (3.2%) were called active. Inconclusive means that the source gave no clear call. Such entries were picked first, then a sample of the others. Calls follow the shape of the dose curve; as a rule, active = well fitted cell-killing curve with a large enough effect; inconclusive = small, poorly fitted or top-dose-only effect, or effect the other way; inactive = flat fitted curve, though single readings scatter. Potencies of inconclusive entries are doubtful fits and often do not repeat.
# Experiment: qHTS assay for MDR1-selective chemotherapeutics: Primary screen using the drug-selected MDR subline cells KB-V1; also: nearly all actives have a fitted effect of over 60% in size
# Settings: KB-V1 MDR cells viability, CellTiter-Glo, 72 h; activity change, negative = cytotoxicity: at 46.1 µM (top of the series)
# Procedure, shortened: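 Compound-treated KB-V1 multidrug-resistant cells, 72 h, 37 degrees C; viability by CellTiter-Glo. Fitted qHTS curves give the values.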
# % is scaled to controls: 0 for no effect and ±100 for the full control effect; potency is read from the fitted curve at half-maximal effect.
Compound,Potency,"activity change, negative = cytotoxicity"
CC1CCN(C(=O)CSc2ccc(-c3cccc([N+](=O)[O-])c3)nn2)CC1,"inconclusive: 8.2 µM [cytotoxic, partial curve]",–
Cc1cc(Br)ccc1NC(=O)CN1C(=O)C2C3CC(c4ccccc4)C(C3)C2C1=O (stereo not drawn),active: 20.6 µM,–
Clc1ccccc1CN(Cc1ccccc1)C(c1cccs1)c1nnnn1C1CCCC1 (stereo not drawn),"inconclusive: 16.4 µM [cytotoxic, single point]",–
CN(c1ccccc1C(=O)Nc1ccccc1C(=O)NCc1ccco1)S(C)(=O)=O,active: 14.6 µM,–
COc1ccc(N(Cc2nnc3n2CCCCC3)C(=O)Nc2ccc(Cl)cc2)cc1Cl,"inconclusive: 25.9 µM [rising, single point]",–
CCc1cccc(C)c1NC(=O)c1cc(C)oc1C,"inconclusive: 20.6 µM [cytotoxic, single point]",–
COc1ccc(C(=O)NCCCNc2nc3cc(C)cc(C)c3cc2C#N)cc1,"inconclusive: 25.9 µM [cytotoxic, single point]",–
Cc1ccc(-c2cnc(NC(=O)c3cccc(Br)c3)s2)c(C)c1,"inconclusive: 11.6 µM [cytotoxic, partial curve]",–
O=C(/C=C/c1ccccc1Cl)Nc1cccc(S(=O)(=O)NC2=NCCCCC2)c1,–,inactive: -6.42%
O=S(=O)(NC1CCCCC1)c1ccc(F)c2ccccc12,"inconclusive: 29.1 µM [cytotoxic, single point]",–
O=C(NC(Nc1ncc(S(=O)(=O)c2ccc([N+](=O)[O-])cc2)s1)(C(F)(F)F)C(F)(F)F)c1ccc(Cl)cc1,"inconclusive: 29.1 µM [cytotoxic, single point]",–
CCOc1ccc(Oc2c(/C=N/NC(=O)C3CC3)c(C)nn2-c2ccccc2)cc1,–,inactive: -3.71%
COc1ccc(C(CNC(=O)c2ccc(OCc3c(C)noc3C)cc2)N2CCCC2)cc1 (stereo not drawn),active: 1.46 µM,–
Cc1ccc(-n2nc3c(N4CCC(C(=O)NC5CCC(C)CC5)CC4)nnc(C)c3c2C)cc1 (stereo not drawn),–,inactive: -10.6%
O=C(N/N=C/c1cccc(Br)c1)c1ccc(N2CCCC2=O)cc1,active: 16.4 µM,–
CCC(C(=O)NCc1ccco1)N(C(=O)CNS(=O)(=O)c1ccccc1)c1ccc(OC)cc1 (stereo not drawn),active: 23.1 µM,–
Cc1cc(F)ccc1S(=O)(=O)Nc1ccccc1C(=O)NCc1ccccn1,"inconclusive: 18.4 µM [cytotoxic, single point]",–
COc1ccc(-c2coc3cc(OC(C)=O)c(OC)cc3c2=O)cc1,–,inactive: 5.32%
CCCc1nc(NCc2ccncc2)c2nnn(Cc3ccccc3F)c2n1,"inconclusive: 20.6 µM [cytotoxic, single point]",–
CC1=C(C(N)=O)C(c2cccc(O)c2)n2ncnc2N1 (stereo not drawn),"inconclusive: 11.6 µM [rising, partial curve, poor fit]",–
Cc1ccc(S(=O)(=O)Cc2ccccc2Cl)cc1,"inconclusive: 20.6 µM [cytotoxic, partial curve, poor fit]",–
N#C/C(=C\c1c(N2CCOCC2)nc2ccccn2c1=O)C(=O)NC1CCS(=O)(=O)C1 (stereo not drawn),–,inactive: 12.4%
C=CCn1c(=O)c(C(=O)Nc2ccc(C)cn2)c(O)c2ccccc21,active: 6.51 µM,–

Compound,Potency,"activity change, negative = cytotoxicity"
Cc1oc(-c2ccccc2Cl)nc1CSCC(=O)N1CCCC1,"inconclusive: 11.6 µM [cytotoxic, partial curve, poor fit]",–
COc1ccccc1N1CCN(C(=O)c2cc(N3C(=O)C4C5CCC(C5)C4C3=O)ccc2Cl)CC1 (stereo not drawn),active: 4.11 µM,–
COc1ccc(C(=O)NC2CCCCCCC2)cc1OC,"inconclusive: 14.6 µM [cytotoxic, partial curve, poor fit]",–
Oc1ccc(-c2nc3ccccc3s2)c(O)c1,"inconclusive: 18.4 µM [cytotoxic, single point]",–
Cc1ccc(NC(=O)c2ccccc2[N+](=O)[O-])nc1,–,inactive: -81.3%
CCCCn1nnc(NC(=O)c2cc3ccccc3o2)n1,"inconclusive: 1.84 µM [rising, full curve]",–
COc1ccc(-n2c(COc3ccc(Cl)cc3Cl)n[nH]c2=S)cc1,–,inactive: -13.6%
Oc1ccc(/C=N/NC(=S)NC2CC3CCC2C3)cc1 (stereo not drawn),–,inactive: 19.1%
COc1ccc(-c2sc3cc(OC)c(OC)cc3c2-c2ccc(O)cc2)cc1,–,inactive: 0.0002%
COc1ccc(CNC(=O)COC(=O)CC2CC3CCC2C3)cc1OC (stereo not drawn),–,inactive: 7.45%
O=[N+]([O-])c1ccccc1/C=N/N1CCN(c2ccccn2)CC1,active: 14.6 µM,–
CCNc1ccc(C(=O)OCC)cc1NC(=O)c1cccc(N(C)C)c1,"inconclusive: 5.8 µM [cytotoxic, full curve]",–
CCOC(=O)c1c(NC(=O)Cc2ccccc2)sc2c1CC(C)(C)NC2(C)C,–,inactive: 5.42%
CCC(c1nnnn1-c1ccc2c(c1)OCCO2)N1CCN(c2ncccc2C(F)(F)F)CC1 (stereo not drawn),"inconclusive: 20.6 µM [cytotoxic, partial curve] and inconclusive: 5.17 µM [cytotoxic, partial curve]",–
COc1ccc2c(c1)NC(c1ccc(N(C)C)cc1)c1cccn1-2 (stereo not drawn),"inconclusive: 23.1 µM [cytotoxic, single point]",–
CN1CCN(CCNC(=O)Nc2ccccc2C(F)(F)F)CC1,"inconclusive: 16.4 µM [rising, partial curve]",–
CCOC(=O)C1=CCN(S(=O)(=O)c2ccc(Br)cc2)C1c1ccc(C)cc1 (stereo not drawn),"inconclusive: 25.9 µM [cytotoxic, single point]",–
CN1CCN(c2ccc(NC(=O)CSc3nnnn3-c3ccccc3Cl)cc2)CC1,–,inactive: -23.6%
O=C(CCCN1C(=O)S/C(=C/c2ccccc2)C1=S)Nc1ccc(C(=O)O)cc1,"inconclusive: 11.6 µM [rising, single point]",–
CCOC(=O)c1c(NC(=S)Nc2ccccc2)sc2c1CCN(CC)C2,–,inactive: 4.95%
O=S(=O)(Nc1cccc(C(F)(F)F)c1)c1ccc(NS(=O)(=O)c2ccc3c(c2)OCCO3)cc1,–,inactive: 0%
CC(=O)C(Sc1ccc2nnc(-c3cccnc3)n2n1)C(C)=O,"inconclusive: 29.1 µM [rising, single point]",–
CC(C)C[C@H]1CNC(=S)N1CC1CCCN1C[C@H](CC(C)C)N1C[C@H](Cc2ccc(O)cc2)N(CC2CCCCC2)C1=S (stereo partly drawn),"inconclusive: 29.1 µM [cytotoxic, single point]",–

# At a glance, 5 of the compounds above:
Compound,Potency,"activity change, negative = cytotoxicity"
Oc1ccc(-c2nc3ccccc3s2)c(O)c1,"inconclusive: 18.4 µM [cytotoxic, single point]",–
Cc1ccc(NC(=O)c2ccccc2[N+](=O)[O-])nc1,–,inactive: -81.3%
CCCCn1nnc(NC(=O)c2cc3ccccc3o2)n1,"inconclusive: 1.84 µM [rising, full curve]",–
COc1ccc(-n2c(COc3ccc(Cl)cc3Cl)n[nH]c2=S)cc1,–,inactive: -13.6%
Oc1ccc(/C=N/NC(=S)NC2CC3CCC2C3)cc1 (stereo not drawn),–,inactive: 19.1%

# (cont.)

Compound,Potency,"activity change, negative = cytotoxicity"
Cc1cc(-c2ccccc2)nc2oc3c(c12)NC(=O)CN(c1ccccc1)C3=O,"inconclusive: 20.6 µM [cytotoxic, partial curve, poor fit]",–
CCOc1ccccc1C(c1c(O)nc(SC)[nH]c1=O)c1c(O)nc(SC)[nH]c1=O,"inconclusive: 29.1 µM [rising, single point]",–
COc1ccc(Cc2nnc(NC(=O)c3cc(OC)c(OC)c(OC)c3)s2)cc1,"inconclusive: 16.4 µM [cytotoxic, single point]",–
COc1ccc(C(C)(O)c2nc(-c3ccc(F)cc3OC)cs2)cc1 (stereo not drawn),"inconclusive: 29.1 µM [cytotoxic, single point]",–
COc1ccc(C2=NOC(Cn3nc(C(=O)NCc4ccco4)cc3-c3ccccc3)C2)cc1 (stereo not drawn),"inconclusive: 29.1 µM [cytotoxic, single point]",–
Oc1ccccc1-c1nnc(SCCN2CCOCC2)n1Cc1ccccc1,"inconclusive: 18.4 µM [cytotoxic, single point]",–
CCc1nnc(NC(=O)CSc2nc3cccnc3n2Cc2ccccc2)s1,"inconclusive: 14.6 µM [cytotoxic, single point]",–
C/C(N)=C(/C#N)C(=O)CSc1nc2ccccc2c(=O)n1Cc1ccc(C)cc1,"inconclusive: 20.6 µM [cytotoxic, single point]",–
COC(=O)C1=C(C)N(Cc2ccccc2)C(=NCCCCO)N[C@H]1CCc1ccccc1,–,inactive: 7.39%
CCOC(=O)COc1cccc2c(=O)n(CC(=O)NCc3ccc(F)cc3)ccc12,active: 1.46 µM,–
CN1CCC(C(=O)N2CCCC(C(=O)c3ccc4c5c(cccc35)CC4)C2)CC1 (stereo not drawn),–,inconclusive: -24.3%
COCC(C)NC(C(=O)Nc1ccc(Cl)c([N+](=O)[O-])c1)c1ccccc1 (stereo not drawn),active: 16.4 µM,–
CC(=O)Nc1ccc(N=NC2C(=O)N(C(N)=S)N=C2C)cc1 (stereo not drawn),"inconclusive: 20.6 µM [rising, single point]",–
COc1ccc(C(=O)c2c(-c3ccsc3)oc3ccc(-c4ccc(OC)cc4)cc23)cc1,–,inactive: 5.37%
COC(=O)[C@@]12CCCCN1[C@H](c1ccc(SC3CCCCC3)c(OC)c1)[C@@H]1C(=O)N(C)C(=O)[C@@H]12,–,inactive: -4.73%
COC(=O)COc1ccc2oc(=O)cc(-c3cc4cccc(OC)c4o3)c2c1,"inconclusive: 29.1 µM [rising, single point]",–
CCCSc1nc(N2CCOCC2)c2c(c1C#N)CC(C)(C)SC2,"inconclusive: 20.6 µM [cytotoxic, partial curve, poor fit]",–
COc1ccc(CC(=O)N2N=C(c3ccncc3)CC2(O)C(F)(F)F)cc1 (stereo not drawn),active: 5.17 µM,–
O=C(CSc1ccc(-c2cccs2)nn1)Nc1ccccc1,active: 11.6 µM,–
COC(=O)[C@@]12C[C@@H](CC(=O)NCc3cccs3)C(=O)N(Cc3ccccc3)C1=CCC(C)(C)C2,"inconclusive: 7.31 µM [cytotoxic, partial curve]",–
C#CCOCCOCCOCCNc1nc(N2CCN(C(=O)CCCCCCCCCCNC(=O)[C@H]([C@@H](C)CC)n3cc(CCCCN=C(N)N)nn3)CC2)nc(N2CCN(C(=O)CCCCCCCCCCNC(=O)[C@@H]([C@H](C)O)n3cc(C)nn3)CC2)n1,"inconclusive: 29.1 µM [cytotoxic, single point]",–
NS(=O)(=O)c1ccc(CCNc2nn3c(-c4ccc(F)c(Cl)c4)cnc3s2)cc1,–,inactive: -9.99%
